Taken from: PubChem BioAssay AID1671195 (Yale University, 2021)
This is one part, drawn at random, of about 22,000 reagents. Of all reagents, about 1,510 (6.9%) got an active call. 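Active includes knockdowns raising or lowering LDL uptake; positive z-scores mean more uptake, negative mean less.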 No sequences are given here.

Aim: 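Knockdowns that increase or decrease uptake of fluorescent LDL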 (primary screen)
Cells: human Huh7 hepatoma cells
Reagent: siRNA pool against human genes, 18 nM
Duration: about 2 to 2.5 days of knockdown, then 8 h LDL uptake
Conditions: DiI-labelled LDL at 30 µg/ml for 8 h, in lipoprotein-deficient serum medium
Measured: 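Fluorescent LDL signal imaged in cells, scaled to the plate median, robust z-score for each replicate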
Direction: robust z-score: higher = more LDL uptake after knockdown
Rule for the call: 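a gene counts as active if at least two replicate z-scores exceed ±2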

Gene | robust z-score, replicate 1 | robust z-score, replicate 2 | robust z-score, replicate 3 | call
CNIH4 (GeneID 29097) | 0.487 | -1.52 | 0.238 | inactive
SLC22A6 (GeneID 9356) | -1.28 | -1.36 | -1.39 | inactive
SLC25A30 (GeneID 253512) | -0.407 | -0.985 | -0.867 | inactive
BAIAP3 (GeneID 8938) | 0.45 | 2.96 | 2.29 | active
FAM217A (GeneID 222826) | 1.66 | 2.2 | 1.82 | inactive
CNPY4 (GeneID 245812) | -0.229 | -0.363 | -0.41 | inactive
AURKC (GeneID 6795) | 1.5 | 0.0323 | 0.577 | inactive
MFSD2B (GeneID 388931) | -1.4 | -1.9 | -1.76 | inactive
METTL25B (GeneID 51093) | 0.0474 | -0.91 | 0.676 | inactive
OR51B6 (GeneID 390058) | 1.25 | 1.05 | 1.53 | inactive
CIDEC (GeneID 63924) | -1.04 | -1.21 | -0.719 | inactive
IL34 (GeneID 146433) | -0.988 | -1.2 | -0.788 | inactive
LOC440911 (retired record) (GeneID 440911) | 2.02 | 2.31 | 2.67 | active
THG1L (GeneID 54974) | 2.91 | 2.01 | 1.14 | active
RIC8B (GeneID 55188) | -0.994 | -0.0389 | 0.964 | inactive
WDR47 (GeneID 22911) | 0.949 | 0.835 | 0.792 | inactive
ADH6 (GeneID 130) | 0.55 | 0.359 | 0.22 | inactive
ZNF44 (GeneID 51710) | -0.114 | 0.0119 | 0.532 | inactive
ECRG4 (GeneID 84417) | 0.659 | 0.793 | -0.172 | inactive
TSG101 (GeneID 7251) | 0.195 | -1.09 | -0.918 | inactive
RAB6B (GeneID 51560) | -0.124 | 1.28 | 0.168 | inactive
ERG28 (GeneID 11161) | 0.806 | 0.479 | 0.0939 | inactive
LANCL2 (GeneID 55915) | -0.817 | -0.369 | -1.27 | inactive
CDIPTOSP (GeneID 440356) | -1.3 | -1.68 | -1.41 | inactive
LOC441745 (retired record) (GeneID 441745) | -0.186 | -0.182 | -0.132 | inactive
WDFY2 (GeneID 115825) | -0.752 | -0.169 | -0.628 | inactive
LOC441074 (retired record) (GeneID 441074) | -0.197 | -0.789 | -0.87 | inactive
LINC01801 (GeneID 400685) | -0.0185 | 0.084 | 0.327 | inactive
ZNF182 (GeneID 7569) | -0.345 | 0.141 | -0.232 | inactive
ZMIZ2 (GeneID 83637) | 0.439 | 0.54 | 0.617 | inactive
CUL4A (GeneID 8451) | 1.68 | 2.6 | 1.44 | inactive
CD28 (GeneID 940) | 0.0494 | -0.626 | 0.0304 | inactive
TSPAN32 (GeneID 10077) | 0.308 | 0.32 | -0.0622 | inactive
IGHV3OR16-13 (GeneID 100287372) | 0.0408 | -2.34 | 0.0595 | inactive
MYT1 (GeneID 4661) | 0.96 | 0.239 | 0.0318 | inactive
KLF6 (GeneID 1316) | -2.19 | -1.89 | -1.91 | active
C4orf54 (GeneID 285556) | -0.36 | -0.824 | -0.583 | inactive
LINC00951 (GeneID 401260) | -0.0652 | -1.68 | -1.32 | inactive
PAK5 (GeneID 57144) | -1.13 | -0.0475 | -1.36 | inactive
KDM5A (GeneID 5927) | -0.208 | -0.242 | -0.00594 | inactive
EEF1A1P35 (GeneID 389223) | 1.78 | 2.1 | 1.13 | inactive
LOC440767 (retired record) (GeneID 440767) | -0.416 | 0.77 | 0.625 | inactive
FGFR3 (GeneID 2261) | -0.0573 | -0.562 | -0.882 | inactive
FAM225B (GeneID 100128385) | 0.0539 | -0.106 | 0.326 | inactive
BORCS7 (GeneID 119032) | -0.569 | -0.774 | -0.866 | inactive
LOC440337 (retired record) (GeneID 440337) | -0.842 | -0.715 | -0.854 | inactive
SPMIP8 (GeneID 374739) | -1.13 | -0.835 | -0.895 | inactive
FGD2 (GeneID 221472) | -1.02 | -0.62 | -1.15 | inactive
DENND10P1 (GeneID 55855) | -0.582 | -0.0118 | 0.926 | inactive
RNF4 (GeneID 6047) | -1.59 | -1.59 | -1.75 | inactive
HACD1 (GeneID 9200) | 1.44 | 0.383 | 1.62 | inactive
DKK3 (GeneID 27122) | -1.76 | 1.14 | -0.957 | inactive
BRINP1 (GeneID 1620) | 0.895 | -1.33 | 0.302 | inactive
GNAT2 (GeneID 2780) | 2.64 | 3.58 | 3.04 | active
WNT2 (GeneID 7472) | -2.09 | -1.12 | -2.08 | active
ARFGAP2 (GeneID 84364) | 0.277 | 0.405 | 0.37 | inactive
EPHB4 (GeneID 2050) | 2.63 | 2.72 | 1.28 | active
KEL (GeneID 3792) | -0.14 | -0.543 | -0.54 | inactive
LOC442374 (retired record) (GeneID 442374) | -0.343 | -0.123 | -0.299 | inactive
SLC67A2 (GeneID 84804) | 2.71 | 3.37 | 3.27 | active
RPSAP49 (GeneID 401537) | -0.444 | -0.245 | -0.0628 | inactive
CDY1 (GeneID 9085) | 2.9 | 0.417 | 1.93 | inactive
MAGOH (GeneID 4116) | 2.37 | 1.34 | 0.853 | inactive
ZNF443 (GeneID 10224) | 0.0576 | -0.46 | -0.0502 | inactive
TAOK3 (GeneID 51347) | 1.54 | 0.298 | 1.08 | inactive
PHYHIP (GeneID 9796) | -0.891 | -1.11 | 0.568 | inactive
LINC01465 (GeneID 283416) | -0.504 | -0.367 | -0.637 | inactive
STRN (GeneID 6801) | -1.39 | -0.0842 | 0.821 | inactive

4 neighbouring records from above:
Gene | robust z-score, replicate 1 | robust z-score, replicate 2 | robust z-score, replicate 3 | call
KDM5A (GeneID 5927) | -0.208 | -0.242 | -0.00594 | inactive
EEF1A1P35 (GeneID 389223) | 1.78 | 2.1 | 1.13 | inactive
LOC440767 (retired record) (GeneID 440767) | -0.416 | 0.77 | 0.625 | inactive
FGFR3 (GeneID 2261) | -0.0573 | -0.562 | -0.882 | inactive
